These are yes or no findings as the source states them, for the method shown. Binding seen in cells or lysates may run through a third protein. Some results given as binding are weak or reduced against the parent protein; the word gives no strength. For part of these data: Sequences can lack the tags named with a protein.
Experiments:
Myc-Chk1^L449R = molecular target: T1, Myc-Chk1^L449R (UniProt O14757); assay: co-IP
T1 sequence: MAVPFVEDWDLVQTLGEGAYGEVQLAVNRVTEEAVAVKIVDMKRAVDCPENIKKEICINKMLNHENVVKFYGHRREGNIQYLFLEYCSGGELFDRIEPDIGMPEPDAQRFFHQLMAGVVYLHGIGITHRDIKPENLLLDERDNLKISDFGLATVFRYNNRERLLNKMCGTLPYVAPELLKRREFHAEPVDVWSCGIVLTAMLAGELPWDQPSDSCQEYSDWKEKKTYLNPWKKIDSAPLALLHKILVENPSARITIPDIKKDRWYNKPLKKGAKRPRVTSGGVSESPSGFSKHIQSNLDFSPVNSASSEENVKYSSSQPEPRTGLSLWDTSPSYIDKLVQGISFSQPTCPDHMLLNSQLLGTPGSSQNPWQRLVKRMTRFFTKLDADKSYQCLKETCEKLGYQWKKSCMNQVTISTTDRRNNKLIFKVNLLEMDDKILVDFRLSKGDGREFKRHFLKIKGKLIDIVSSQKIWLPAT

The chains behind the UniProt entries cited, without tags or fusion partners. Where a name states a change or a piece, a line headed by the entry shows the natural chain unless it says otherwise.
UniProt Q9Y297, whole entry: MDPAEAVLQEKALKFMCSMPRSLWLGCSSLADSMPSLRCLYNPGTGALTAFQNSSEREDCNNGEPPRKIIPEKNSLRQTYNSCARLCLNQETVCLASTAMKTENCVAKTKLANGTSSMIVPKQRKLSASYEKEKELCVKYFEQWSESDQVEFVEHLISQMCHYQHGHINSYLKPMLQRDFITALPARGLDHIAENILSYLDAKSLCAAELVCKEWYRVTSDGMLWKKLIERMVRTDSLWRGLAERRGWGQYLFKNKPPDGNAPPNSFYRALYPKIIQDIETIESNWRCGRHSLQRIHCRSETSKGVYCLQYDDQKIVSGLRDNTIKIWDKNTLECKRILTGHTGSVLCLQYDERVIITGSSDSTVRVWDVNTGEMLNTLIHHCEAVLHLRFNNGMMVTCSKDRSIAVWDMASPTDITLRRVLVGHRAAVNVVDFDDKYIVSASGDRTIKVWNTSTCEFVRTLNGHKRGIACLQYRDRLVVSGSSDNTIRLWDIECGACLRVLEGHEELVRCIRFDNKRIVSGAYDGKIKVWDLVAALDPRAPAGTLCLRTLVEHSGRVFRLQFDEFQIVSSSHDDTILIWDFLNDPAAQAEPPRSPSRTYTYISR
UniProt Q9UM11, whole entry: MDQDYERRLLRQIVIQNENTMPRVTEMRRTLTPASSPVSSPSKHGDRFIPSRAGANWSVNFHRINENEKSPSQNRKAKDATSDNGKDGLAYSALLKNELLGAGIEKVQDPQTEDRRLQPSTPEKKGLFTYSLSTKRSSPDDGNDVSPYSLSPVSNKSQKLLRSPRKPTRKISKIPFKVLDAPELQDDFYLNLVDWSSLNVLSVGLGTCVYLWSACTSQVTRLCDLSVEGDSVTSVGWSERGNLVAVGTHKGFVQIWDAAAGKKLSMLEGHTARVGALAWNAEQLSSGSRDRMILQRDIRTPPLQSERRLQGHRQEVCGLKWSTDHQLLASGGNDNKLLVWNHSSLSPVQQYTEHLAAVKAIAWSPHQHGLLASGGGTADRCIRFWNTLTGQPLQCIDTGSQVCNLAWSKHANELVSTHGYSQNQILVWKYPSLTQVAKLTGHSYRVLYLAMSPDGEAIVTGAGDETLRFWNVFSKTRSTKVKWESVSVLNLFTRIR

Flag-βTRCP1 = Flag-βTRCP1 (UniProt Q9Y297); assay: co-IP
[1] = molecular target: GST-Cdh1 phosphorylated in HeLa G1-S extract (UniProt Q9UM11); assay: pull-down

| binding (Myc-Chk1^L449R) | binding (Flag-βTRCP1) | binding [1] | Substance |
| --- | --- | --- | --- |
| binds | binds | – | HA-Cdh1 (wild type, expressed in 293T cells) (from UniProt Q9UM11 1-496) |
| – | – | binds | HA-βTRCP1 (in vitro translated) (from UniProt Q9Y297 1-605) |
